Results taken from PubChem BioAssay (EPA / NIEHS).
The inconclusive results got no clear call from the source; some entries with a clear call stand among them for comparison. For some of these results: Potencies beside an inconclusive call are fits to weak or partial responses and may not hold up. Active and inactive are the calls of the source. Rule for the calls: active = hit-call score of the fitted dose curve at least 0.9, where 1 is the maximum; inconclusive = response in the unintended direction; inactive = score below 0.9.

Protein sequences, listed by entry. Tags and fused reporters are not part of them. Lines headed by an entry give the natural chain unless they say otherwise; changes in a name come on top.
UniProt Q96RI1: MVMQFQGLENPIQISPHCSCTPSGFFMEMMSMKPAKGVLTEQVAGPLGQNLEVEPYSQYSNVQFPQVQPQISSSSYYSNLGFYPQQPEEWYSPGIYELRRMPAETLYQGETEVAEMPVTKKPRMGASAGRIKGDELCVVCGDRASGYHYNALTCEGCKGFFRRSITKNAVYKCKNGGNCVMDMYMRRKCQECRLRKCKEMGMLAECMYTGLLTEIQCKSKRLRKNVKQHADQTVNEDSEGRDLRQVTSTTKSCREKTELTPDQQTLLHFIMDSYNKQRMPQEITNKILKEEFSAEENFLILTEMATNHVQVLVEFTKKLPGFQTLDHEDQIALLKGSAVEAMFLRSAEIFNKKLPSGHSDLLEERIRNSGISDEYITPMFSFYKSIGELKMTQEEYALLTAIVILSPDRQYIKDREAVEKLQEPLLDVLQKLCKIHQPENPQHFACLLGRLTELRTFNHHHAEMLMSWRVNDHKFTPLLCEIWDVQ
UniProt P55055, whole entry, looked up: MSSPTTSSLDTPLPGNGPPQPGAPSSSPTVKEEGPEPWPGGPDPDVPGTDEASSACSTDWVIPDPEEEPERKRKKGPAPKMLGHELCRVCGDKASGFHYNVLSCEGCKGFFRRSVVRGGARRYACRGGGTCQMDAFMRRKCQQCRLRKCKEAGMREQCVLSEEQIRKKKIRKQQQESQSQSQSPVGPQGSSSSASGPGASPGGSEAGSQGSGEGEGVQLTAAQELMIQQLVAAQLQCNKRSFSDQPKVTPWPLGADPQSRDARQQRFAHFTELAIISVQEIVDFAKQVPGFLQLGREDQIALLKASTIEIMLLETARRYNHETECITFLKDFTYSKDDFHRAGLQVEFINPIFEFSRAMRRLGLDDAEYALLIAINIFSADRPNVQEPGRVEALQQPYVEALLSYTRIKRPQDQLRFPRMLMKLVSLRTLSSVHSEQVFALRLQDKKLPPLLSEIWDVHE
UniProt Q03181: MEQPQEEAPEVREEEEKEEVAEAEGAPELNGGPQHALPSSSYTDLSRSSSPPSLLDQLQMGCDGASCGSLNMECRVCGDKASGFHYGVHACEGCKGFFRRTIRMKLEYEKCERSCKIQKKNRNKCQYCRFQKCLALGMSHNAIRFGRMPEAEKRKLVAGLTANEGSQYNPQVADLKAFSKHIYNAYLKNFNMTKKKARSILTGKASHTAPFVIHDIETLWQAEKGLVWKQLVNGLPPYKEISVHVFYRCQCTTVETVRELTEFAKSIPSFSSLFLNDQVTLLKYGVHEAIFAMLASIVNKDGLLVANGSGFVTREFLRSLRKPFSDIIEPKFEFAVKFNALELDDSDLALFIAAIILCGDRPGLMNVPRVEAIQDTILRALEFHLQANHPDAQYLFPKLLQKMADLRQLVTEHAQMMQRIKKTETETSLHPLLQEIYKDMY
UniProt P11473: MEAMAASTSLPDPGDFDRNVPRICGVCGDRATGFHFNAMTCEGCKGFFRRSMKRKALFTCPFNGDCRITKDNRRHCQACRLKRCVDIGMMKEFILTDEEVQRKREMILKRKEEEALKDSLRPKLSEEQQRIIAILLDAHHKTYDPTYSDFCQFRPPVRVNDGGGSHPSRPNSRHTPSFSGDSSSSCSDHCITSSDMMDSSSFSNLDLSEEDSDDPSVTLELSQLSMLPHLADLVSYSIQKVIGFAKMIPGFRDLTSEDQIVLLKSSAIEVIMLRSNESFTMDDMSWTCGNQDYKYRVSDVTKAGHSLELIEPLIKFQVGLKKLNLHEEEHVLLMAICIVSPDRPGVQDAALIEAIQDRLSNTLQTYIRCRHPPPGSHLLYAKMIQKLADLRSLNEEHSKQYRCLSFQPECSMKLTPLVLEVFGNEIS
UniProt P19793: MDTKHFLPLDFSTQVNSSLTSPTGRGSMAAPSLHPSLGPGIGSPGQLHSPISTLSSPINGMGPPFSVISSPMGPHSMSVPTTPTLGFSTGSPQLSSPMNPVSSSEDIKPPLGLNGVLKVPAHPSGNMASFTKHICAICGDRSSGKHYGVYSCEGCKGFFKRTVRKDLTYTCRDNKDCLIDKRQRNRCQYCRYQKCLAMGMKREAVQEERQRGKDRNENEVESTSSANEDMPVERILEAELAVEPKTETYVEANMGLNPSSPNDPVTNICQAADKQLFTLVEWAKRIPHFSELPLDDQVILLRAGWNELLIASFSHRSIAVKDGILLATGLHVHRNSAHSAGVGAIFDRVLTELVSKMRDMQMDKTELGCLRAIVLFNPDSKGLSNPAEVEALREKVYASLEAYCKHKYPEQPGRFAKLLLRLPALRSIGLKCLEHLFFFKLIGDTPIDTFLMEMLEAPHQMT
UniProt P04150: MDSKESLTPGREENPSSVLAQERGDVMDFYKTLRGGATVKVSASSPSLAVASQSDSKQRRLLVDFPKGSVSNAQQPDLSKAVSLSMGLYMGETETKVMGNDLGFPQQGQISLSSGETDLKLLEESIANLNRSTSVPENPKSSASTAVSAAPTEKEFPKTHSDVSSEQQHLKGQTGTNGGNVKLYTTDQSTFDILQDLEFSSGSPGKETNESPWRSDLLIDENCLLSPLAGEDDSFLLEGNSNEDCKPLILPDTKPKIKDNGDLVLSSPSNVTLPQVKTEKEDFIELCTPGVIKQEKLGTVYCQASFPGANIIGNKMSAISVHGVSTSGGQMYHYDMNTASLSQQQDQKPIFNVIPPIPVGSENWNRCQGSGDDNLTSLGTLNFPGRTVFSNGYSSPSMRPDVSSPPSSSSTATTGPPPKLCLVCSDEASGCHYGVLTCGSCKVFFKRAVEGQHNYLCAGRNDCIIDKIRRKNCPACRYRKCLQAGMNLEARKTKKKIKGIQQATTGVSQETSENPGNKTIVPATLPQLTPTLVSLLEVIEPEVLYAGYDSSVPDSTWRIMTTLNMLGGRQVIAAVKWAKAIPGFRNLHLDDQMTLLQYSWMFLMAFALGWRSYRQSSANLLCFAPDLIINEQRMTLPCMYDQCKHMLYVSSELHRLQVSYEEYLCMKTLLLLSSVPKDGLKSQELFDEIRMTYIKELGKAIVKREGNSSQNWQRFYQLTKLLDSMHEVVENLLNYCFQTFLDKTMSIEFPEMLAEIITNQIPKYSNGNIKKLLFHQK
UniProt P37231: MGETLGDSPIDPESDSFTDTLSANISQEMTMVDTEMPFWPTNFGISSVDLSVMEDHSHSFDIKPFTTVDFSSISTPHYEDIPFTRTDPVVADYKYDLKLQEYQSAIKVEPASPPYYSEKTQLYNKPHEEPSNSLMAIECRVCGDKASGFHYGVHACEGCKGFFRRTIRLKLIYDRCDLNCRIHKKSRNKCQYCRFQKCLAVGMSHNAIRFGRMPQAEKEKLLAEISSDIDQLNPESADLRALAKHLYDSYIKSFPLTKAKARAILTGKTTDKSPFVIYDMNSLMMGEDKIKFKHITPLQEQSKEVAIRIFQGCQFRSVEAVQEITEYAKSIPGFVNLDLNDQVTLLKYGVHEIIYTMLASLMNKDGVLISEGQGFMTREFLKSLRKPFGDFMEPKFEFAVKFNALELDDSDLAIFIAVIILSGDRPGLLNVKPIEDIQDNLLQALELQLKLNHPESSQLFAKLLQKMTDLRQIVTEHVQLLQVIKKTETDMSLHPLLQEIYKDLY
UniProt P04637, whole entry, looked up: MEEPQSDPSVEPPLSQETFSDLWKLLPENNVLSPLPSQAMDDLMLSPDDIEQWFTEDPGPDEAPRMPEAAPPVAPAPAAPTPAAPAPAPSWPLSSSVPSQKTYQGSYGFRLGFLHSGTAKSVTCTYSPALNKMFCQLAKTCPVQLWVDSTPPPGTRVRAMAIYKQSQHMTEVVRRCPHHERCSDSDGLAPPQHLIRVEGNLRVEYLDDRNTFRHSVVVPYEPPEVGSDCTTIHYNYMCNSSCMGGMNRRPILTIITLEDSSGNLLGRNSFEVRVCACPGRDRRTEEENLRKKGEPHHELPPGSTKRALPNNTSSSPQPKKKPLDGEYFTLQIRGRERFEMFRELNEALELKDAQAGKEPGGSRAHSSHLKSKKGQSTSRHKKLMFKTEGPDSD
UniProt P62508: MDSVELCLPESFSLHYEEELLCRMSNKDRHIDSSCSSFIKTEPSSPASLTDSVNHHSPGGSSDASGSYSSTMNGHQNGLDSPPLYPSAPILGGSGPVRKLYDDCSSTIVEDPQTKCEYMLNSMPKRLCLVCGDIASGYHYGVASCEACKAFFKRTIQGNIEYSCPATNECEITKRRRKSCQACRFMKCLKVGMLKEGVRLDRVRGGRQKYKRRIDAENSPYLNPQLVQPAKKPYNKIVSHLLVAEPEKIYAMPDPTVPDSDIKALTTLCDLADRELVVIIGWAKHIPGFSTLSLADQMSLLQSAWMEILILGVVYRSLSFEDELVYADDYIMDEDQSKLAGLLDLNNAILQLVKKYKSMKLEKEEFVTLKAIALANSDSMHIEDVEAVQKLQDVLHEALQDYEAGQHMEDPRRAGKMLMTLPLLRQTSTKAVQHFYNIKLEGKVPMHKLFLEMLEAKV
UniProt P04406: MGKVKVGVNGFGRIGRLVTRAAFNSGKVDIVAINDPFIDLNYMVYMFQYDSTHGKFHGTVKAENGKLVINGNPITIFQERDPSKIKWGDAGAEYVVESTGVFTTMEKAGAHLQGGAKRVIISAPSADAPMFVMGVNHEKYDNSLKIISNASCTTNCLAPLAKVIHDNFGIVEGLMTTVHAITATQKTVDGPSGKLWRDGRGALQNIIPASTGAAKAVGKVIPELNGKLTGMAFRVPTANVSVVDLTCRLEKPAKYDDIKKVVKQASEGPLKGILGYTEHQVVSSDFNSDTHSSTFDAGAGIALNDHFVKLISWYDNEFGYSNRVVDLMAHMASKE

How the values were obtained:
[1] = target: Bile acid receptor (Homo sapiens) (UniProt Q96RI1); experiment: ATG_FXR_TRANS: Attagene TRANS-FACTORIAL HepG2 Assay for Farnesoid X Receptor (FXR) (AID 2282979); conditions: HepG2 Attagene TRANS FXR-GAL4 reporter transcription;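 note: hits raise reporter mRNA above DMSO so AC50 marks FXR activation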
How it was run: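 After 24 h chemical treatment of transfected HepG2 cells, GAL4-UAS reporter transcripts driven by an exogenous FXR-GAL4 fusion were measured by RT-PCR and capillary electrophoresis. Increases over DMSO were fitted.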

[2] = target: Oxysterols receptor LXR-beta (Homo sapiens) (UniProt P55055); experiment: ATG_LXRb_TRANS: Attagene TRANS-FACTORIAL HepG2 Assay for human Liver X Receptor beta (LXRb) (AID 2282981); conditions: HepG2 Attagene TRANS GAL4-LXRb reporter, mRNA
How it was run: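 In this TRANS format, exogenous chimeric NR-Gal4 protein activity, not endogenous factors, drives reporter expression in transfected human HepG2 cells. Exposure lasted 24 h; reporter mRNA was read by fluorescent capillary electrophoresis.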

[3] = ATG_M_06_TRANS: Attagene TRANS-FACTORIAL HepG2 Assay for M06 Transcription Factor (Internal Marker) (AID 2282983); conditions: HepG2 Attagene TRANS M06 internal marker reporter;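 for AC50: potency for rise in reporter mRNA above DMSO baseline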
How it was run: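 Internal-marker background readout from a multiplexed TRANS reporter system in HepG2; 24 h dosing; mRNA induction quantified by RT-PCR plus capillary electrophoresis fluorescence; DMSO as negative control and baseline.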

[4] = target: human Peroxisome Proliferator-activated Receptor delta (PPARd), PPARD (gene 5467) (UniProt Q03181); experiment: ATG_PPARd_TRANS: Attagene TRANS-FACTORIAL HepG2 Assay for human Peroxisome Proliferator-activated Receptor delta (PPARd) (AID 2283002)
How it was run: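 Measured quantity: GAL4-UAS reporter transcript induction in HepG2 after 24 h chemical dosing, with NR-Gal4 chimeras supplied by transient transfection. Detection by RT-PCR and capillary electrophoresis; upward fit against DMSO.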

[5] = target: human Vitamin D Receptor (VDR), VDR (gene 7421) (UniProt P11473); experiment: ATG_VDR_TRANS: Attagene TRANS-FACTORIAL HepG2 Assay for human Vitamin D Receptor (VDR) (AID 2283022)
How it was run: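 Multiplexed TRANS reporter in HepG2; 24 h treatment; reporter mRNA by RT-PCR plus capillary electrophoresis; upregulation scored relative to DMSO.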

[6] = target: Retinoic acid receptor RXR-alpha (Homo sapiens) (UniProt P19793); experiment: OT_NURR1_NURR1RXRa_0480: Odyssey Thera (OT) 8-hour HEK293T Protein Complementation Assay for Nurr1/retinoid X receptor (RXR) (AID 2283385)
How it was run: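 8 h compound exposure, HEK293T; Nurr1/RXRα fragment complementation; fluorescence intensity; positive fitting direction vs DMSO baseline.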

[7] = read-out: HMG-CoA synthase (HMGCS2), HMGCS2 (gene 3158); experiment: CLD_HMGCS2_24hr: CellzDirect (CLD) Gene Expression Assay for HMG-CoA synthase (HMGCS2) at 24 hours (AID 2283691)
How it was run: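 Primary human hepatocytes from two donor preparations, dosed daily with fresh solutions; vehicle 0.2% DMSO, 24 h harvest. HMGCS2 mRNA quantified by qNPA with S1 nuclease digestion and chemiluminescence; gain fitted versus DMSO, cytotoxicity annotated by morphology.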

[8] = read-out: HMG-CoA synthase (HMGCS2), HMGCS2 (gene 3158); experiment: CLD_HMGCS2_48hr: CellzDirect (CLD) Gene Expression Assay for HMG-CoA synthase (HMGCS2) at 48 hours (AID 2283711)
How it was run: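 Primary human hepatocytes from two donors dosed daily for two days, 0.2% DMSO vehicle. HMGCS2 mRNA measured 48 h after dosing by quantitative nuclease protection assay with chemiluminescent read-out; induction fitted relative to DMSO, cytotoxicity flagged by microscopy.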

[9] = target: Glucocorticoid receptor (Homo sapiens) (UniProt P04150); experiment: ATG_GR_TRANS: Attagene TRANS-FACTORIAL HepG2 Assay for human Glucocorticoid Receptor (GR) (AID 2282978); conditions: HepG2 Attagene TRANS GR reporter, mRNA transcription;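 note: activators score as hits since higher reporter transcript over DMSO is fitted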
How it was run: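 After 24 h incubation with test chemical, transfected HepG2 cells were lysed for RNA; reporter cDNA was amplified, FAM-labelled, HpaI-digested and sized on a capillary analyser. Signal gain relative to DMSO was scored.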

[10] = CCTE_Harrill_HTTr_CellCount_MCF7: CCTE's Cell Proliferation Assessment for the High-Throughput Transcriptomics (HTTr) Platform, Harrill Lab (AID 2284012);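 note: count of Hoechst-stained nuclei per well by high-content imaging in MCF-7 cells; cells exposed to compound for six hours; intended direction is loss of nuclei count meaning fewer cells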
How it was run: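 Chemicals in eight-point dilution series are added to MCF-7 cells for six hours, nuclei are stained with Hoechst and imaged, and per-well nuclei counts are fitted in both directions relative to DMSO controls.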

[11] = target: Peroxisome proliferator-activated receptor gamma (Homo sapiens) (UniProt P37231); experiment: ATG_PPARg_TRANS: Attagene TRANS-FACTORIAL HepG2 Assay for human Peroxisome Proliferator-activated Receptor-gamma (PPARg) (AID 2283007)
How it was run: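 Twenty-four hours after chemical dosing of transiently transfected HepG2 cells, isolated RNA was converted to cDNA, reporter sequences amplified and 6-FAM-labelled, then HpaI-digested and analysed by capillary electrophoresis. Signal increase against DMSO was fitted.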

[12] = target: Retinoic acid receptor RXR-alpha (Homo sapiens) (UniProt P19793); experiment: OT_NURR1_NURR1RXRa_1440: Odyssey Thera (OT) 24-hour HEK293T Protein Complementation Assay for Nurr1/retinoid X receptor (RXR) (AID 2283386)
How it was run: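 Interaction of Nurr1 with RXRα brings fused reporter fragments together in human HEK293T cells, restoring a functional reporter. Fluorescence intensity is measured 24 h after chemical treatment, and values are analysed in the positive direction against DMSO.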

[13] = target: Cellular tumor antigen p53 (Homo sapiens) (UniProt P04637); experiment: TOX21_p53_BLA_p2_ratio: Tox21 HCT-116 p53 Agonism Beta-lactamase Assay, Ratio, Phase 2 (AID 2283592)
How it was run: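 Human colon HCT116 cells with an inducible p53 beta-lactamase reporter are exposed to test chemicals for 16 h at 37C. Reporter induction is read as the 460/530 nm emission ratio after CCF4-AM loading, normalized to DMSO.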

[14] = target: Cellular tumor antigen p53 (Homo sapiens) (UniProt P04637); experiment: TOX21_p53_BLA_p5_ratio: Tox21 HCT-116 p53 Agonism Beta-lactamase Assay, Ratio, Phase 5 (AID 2283599)
How it was run: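 HCT-116 cells carrying a p53-inducible beta-lactamase reporter were seeded at 4000 cells/well and dosed after 5 h with compound in DMSO (217-fold dilution). After 16 h at 37C, CCF4-AM substrate was added for 2 h, and the 460/530 nm emission ratio was scored as gain-of-signal versus DMSO.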

[15] = target: Cellular tumor antigen p53 (Homo sapiens) (UniProt P04637); experiment: TOX21_p53_BLA_p4_ratio: Tox21 HCT-116 p53 Agonism Beta-lactamase Assay, Ratio, Phase 4 (AID 2283601)
How it was run: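 HCT116 cells carrying an inducible beta-lactamase reporter were plated at 4000 cells/well, rested 5 h, then exposed to compounds in DMSO (217-fold dilution) for 16 h at 37C. CCF4-AM substrate was loaded 2 h at room temperature; 460/530 nm emission ratio scored gain-of-signal versus DMSO.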

[16] = ACEA_ER_AUC_viability: ACEA Biosciences xCELLigence Real-Time Cell Analysis on Estrogen Receptor Agonism for Viability (AID 2283782);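 note: continuous compound exposure with impedance area under curve over 80 h; hit means loss of impedance signal meaning reduced cell growth or viability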
How it was run: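 T-47D human breast cells in phenol red-free RPMI1640 with 10% charcoal-stripped FBS were dosed with an 8-point 1:4 dilution series from 100 uM top final concentration, in duplicate. Impedance-based growth was followed for 80 h; AUC analysed versus DMSO.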

[17] = target: Estrogen-related receptor gamma (Homo sapiens) (UniProt P62508); experiment: ATG_ERRg_TRANS: Attagene TRANS-FACTORIAL HepG2 Assay for human Estrogen-Related Receptor gamma (ERRg) (AID 2282977); conditions: HepG2 Attagene TRANS reporter, ERRg transactivation;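 note: hits increase reporter signal over DMSO so potencies reflect activators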
How it was run: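 Transfect HepG2 with multiple GAL4-UAS reporter transcription units; dose chemicals 24 h; isolate RNA, reverse-transcribe with oligo(dT), PCR-amplify, label with 6-FAM, digest with HpaI; size fragments by capillary electrophoresis. DMSO serves as negative control.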

[18] = read-out: Glyceraldehyde-3-phosphate dehydrogenase (Homo sapiens) (UniProt P04406); experiment: CLD_GAPDH_24hr: CellzDirect (CLD) Gene Expression Assay for Baseline Control (Glyceraldehyde 3-phosphate dehydrogenase) at 24 hours (AID 2283692)
How it was run: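 Primary human hepatocytes (two donor preparations) dosed daily for two days, 0.2% DMSO vehicle; GAPDH mRNA measured at 24 h by qNPA chemiluminescence as a background control, gain-of-signal fitted against DMSO.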

[19] = target: Cellular tumor antigen p53 (Homo sapiens) (UniProt P04637); experiment: TOX21_p53_BLA_p3_ratio: Tox21 HCT-116 p53 Agonism Beta-lactamase Assay, Ratio, Phase 3 (AID 2283596)
How it was run: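 HCT116 p53-bla cells (4000/well) given compound in DMSO (217-fold dilution) after 5 h, incubated 16 h at 37C. CCF4-AM substrate 2 h at room temperature; 460/530 nm emission ratio, gain fitted against DMSO.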

[20] = TOX21_p53_BLA_p5_viability: Viability Assessment in the Tox21 HCT-116 p53 Agonism Beta-lactamase Assay, Phase 5 (AID 2283600)
How it was run: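 Seeded cells (4000/well) settle 5 h before compound addition. Plates then incubate 16 h at 37C, receive FRET substrate for 2 h, and finally CellTiter-Glo, with luminescence measured after a 30 min room-temperature incubation.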

Measured: AC50

CCCCC(CC)COC(=O)c1ccccc1C(=O)OCC(CC)CCCC (stereo unspecified)
inconclusive: [3] 22.6 µM | [4] 50 µM | [5] 11.7 µM | [7] 0.562 µM | [8] 0.0004 µM
inactive: [1] | [2] | [6]

CCOP(=S)(OCC)SCSc1ccc(Cl)cc1
inconclusive: [9] 100 µM | [3] 0.203 µM | [5] 23.5 µM | [10] 50 µM

CCOP(=O)(O)C(N)=O
inconclusive: [9] 0.0823 µM | [4] 100 µM
inactive: [11]

CN(CCCC(=O)c1cccnc1)N=O
inconclusive: [1] 100 µM | [11] 179 µM | [10] 50 µM
inactive: [5] | [16]

CN(CCCC(O)c1cccnc1)N=O (stereo unspecified)
inconclusive: [9] 100 µM | [2] 100 µM | [3] 0.0823 µM | [4] 100 µM | [5] 48.7 µM
inactive: [11]

N#Cc1c[nH]cc1-c1cccc2c1OC(F)(F)O2
inactive: [17] | [9] | [2] | [16]
active: [13] 7.61 µM | [14] 5.39 µM | [15] 6.17 µM
inconclusive: [3] 29 µM | [4] 1.42 µM | [5] 0.384 µM | [12] 7.19 µM | [7] 15.8 µM | [18] 20 µM | [8] 36.4 µM | [10] 50 µM

CCOP(=S)(NC(C)C)Oc1ccccc1C(=O)OC(C)C (stereo unspecified)
active: [11] 8.99 µM
inactive: [17] | [5] | [20]
inconclusive: [2] 1.42 µM | [19] 46.1 µM | [16] 0.609 µM
